Test results as given in the supplement of paper PMC7666118.
The other results are listed elsewhere or left out.

Sequences of proteins named here, by UniProt entry; tags and fusion partners are left off. A change or cut given only in a name is not applied to a line headed by its entry.
UniProt O43660: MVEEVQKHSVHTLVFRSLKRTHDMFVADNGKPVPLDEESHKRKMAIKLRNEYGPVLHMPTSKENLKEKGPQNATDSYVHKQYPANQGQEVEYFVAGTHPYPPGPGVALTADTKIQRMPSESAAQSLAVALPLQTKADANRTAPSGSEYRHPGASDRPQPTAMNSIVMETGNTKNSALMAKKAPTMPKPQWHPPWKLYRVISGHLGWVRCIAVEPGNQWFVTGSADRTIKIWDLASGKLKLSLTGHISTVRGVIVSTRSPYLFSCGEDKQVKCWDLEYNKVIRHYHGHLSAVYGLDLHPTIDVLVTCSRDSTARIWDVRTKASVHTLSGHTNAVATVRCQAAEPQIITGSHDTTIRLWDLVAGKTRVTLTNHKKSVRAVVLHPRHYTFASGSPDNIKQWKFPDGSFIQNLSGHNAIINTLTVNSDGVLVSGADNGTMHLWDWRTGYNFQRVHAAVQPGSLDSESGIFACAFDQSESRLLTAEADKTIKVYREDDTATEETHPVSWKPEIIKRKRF
UniProt Q99755: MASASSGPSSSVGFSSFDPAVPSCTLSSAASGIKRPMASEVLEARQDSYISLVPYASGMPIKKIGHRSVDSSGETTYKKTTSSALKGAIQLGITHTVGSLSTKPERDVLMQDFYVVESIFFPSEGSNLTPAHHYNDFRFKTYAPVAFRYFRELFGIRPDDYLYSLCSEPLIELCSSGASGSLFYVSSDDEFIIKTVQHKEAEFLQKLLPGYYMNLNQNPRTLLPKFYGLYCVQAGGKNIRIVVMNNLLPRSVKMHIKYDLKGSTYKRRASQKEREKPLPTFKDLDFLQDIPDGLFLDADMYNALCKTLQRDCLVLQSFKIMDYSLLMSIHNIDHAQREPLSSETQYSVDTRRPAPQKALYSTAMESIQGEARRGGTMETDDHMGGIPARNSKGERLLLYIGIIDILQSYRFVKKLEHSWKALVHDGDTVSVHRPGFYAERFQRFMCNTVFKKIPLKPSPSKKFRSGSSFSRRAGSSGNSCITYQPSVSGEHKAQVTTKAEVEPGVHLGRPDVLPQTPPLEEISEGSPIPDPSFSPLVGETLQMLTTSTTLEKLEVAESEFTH
UniProt Q15181: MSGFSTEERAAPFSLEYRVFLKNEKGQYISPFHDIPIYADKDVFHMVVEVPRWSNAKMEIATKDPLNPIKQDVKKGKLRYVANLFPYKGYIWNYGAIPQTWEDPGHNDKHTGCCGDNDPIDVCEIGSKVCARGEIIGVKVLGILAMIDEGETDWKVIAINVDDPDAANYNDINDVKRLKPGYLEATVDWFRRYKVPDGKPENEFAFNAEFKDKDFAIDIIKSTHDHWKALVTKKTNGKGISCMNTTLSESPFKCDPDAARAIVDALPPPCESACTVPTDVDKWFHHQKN
UniProt Q8TBX8: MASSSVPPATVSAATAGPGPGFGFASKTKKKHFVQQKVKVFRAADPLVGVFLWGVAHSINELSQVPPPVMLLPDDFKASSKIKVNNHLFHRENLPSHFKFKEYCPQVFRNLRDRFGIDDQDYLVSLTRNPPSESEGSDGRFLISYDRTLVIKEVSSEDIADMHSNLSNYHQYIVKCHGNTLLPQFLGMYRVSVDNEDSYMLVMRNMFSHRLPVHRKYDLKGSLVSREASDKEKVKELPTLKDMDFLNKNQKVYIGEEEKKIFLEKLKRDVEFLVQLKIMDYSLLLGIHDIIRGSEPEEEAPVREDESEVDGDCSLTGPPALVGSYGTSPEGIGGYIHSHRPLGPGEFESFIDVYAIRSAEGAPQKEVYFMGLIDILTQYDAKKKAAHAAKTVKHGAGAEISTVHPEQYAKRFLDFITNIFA
UniProt P60510: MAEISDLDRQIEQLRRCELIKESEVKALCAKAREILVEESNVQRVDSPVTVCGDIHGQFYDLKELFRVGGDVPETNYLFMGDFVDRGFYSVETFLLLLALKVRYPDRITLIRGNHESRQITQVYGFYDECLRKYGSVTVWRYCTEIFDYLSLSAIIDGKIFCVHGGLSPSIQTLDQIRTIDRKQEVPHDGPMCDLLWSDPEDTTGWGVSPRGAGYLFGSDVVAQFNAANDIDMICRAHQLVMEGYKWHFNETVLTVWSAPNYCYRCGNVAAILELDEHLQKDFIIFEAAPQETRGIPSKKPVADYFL
UniProt Q9P0J1: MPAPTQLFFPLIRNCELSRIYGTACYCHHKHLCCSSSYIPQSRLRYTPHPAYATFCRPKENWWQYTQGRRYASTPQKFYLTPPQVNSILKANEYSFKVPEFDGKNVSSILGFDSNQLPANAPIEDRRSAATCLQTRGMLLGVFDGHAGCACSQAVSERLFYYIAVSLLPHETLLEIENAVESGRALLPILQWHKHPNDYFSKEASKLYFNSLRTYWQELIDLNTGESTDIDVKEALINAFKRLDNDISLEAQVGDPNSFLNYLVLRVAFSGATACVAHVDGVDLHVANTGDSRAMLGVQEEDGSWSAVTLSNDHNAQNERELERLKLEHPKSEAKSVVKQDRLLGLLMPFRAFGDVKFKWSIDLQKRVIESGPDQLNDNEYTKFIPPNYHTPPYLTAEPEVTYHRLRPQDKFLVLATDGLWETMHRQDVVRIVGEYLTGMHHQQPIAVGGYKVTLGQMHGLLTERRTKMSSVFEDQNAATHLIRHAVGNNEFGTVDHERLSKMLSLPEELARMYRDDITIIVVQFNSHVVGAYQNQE
UniProt O15162: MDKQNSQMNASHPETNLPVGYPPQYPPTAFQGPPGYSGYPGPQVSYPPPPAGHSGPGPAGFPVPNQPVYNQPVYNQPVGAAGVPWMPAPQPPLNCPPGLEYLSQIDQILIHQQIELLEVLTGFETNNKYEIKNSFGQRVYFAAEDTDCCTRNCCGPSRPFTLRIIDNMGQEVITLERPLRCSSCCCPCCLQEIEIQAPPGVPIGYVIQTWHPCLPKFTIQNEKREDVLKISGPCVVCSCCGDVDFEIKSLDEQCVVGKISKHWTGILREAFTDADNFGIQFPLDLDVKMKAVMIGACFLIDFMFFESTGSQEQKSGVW
UniProt P14859: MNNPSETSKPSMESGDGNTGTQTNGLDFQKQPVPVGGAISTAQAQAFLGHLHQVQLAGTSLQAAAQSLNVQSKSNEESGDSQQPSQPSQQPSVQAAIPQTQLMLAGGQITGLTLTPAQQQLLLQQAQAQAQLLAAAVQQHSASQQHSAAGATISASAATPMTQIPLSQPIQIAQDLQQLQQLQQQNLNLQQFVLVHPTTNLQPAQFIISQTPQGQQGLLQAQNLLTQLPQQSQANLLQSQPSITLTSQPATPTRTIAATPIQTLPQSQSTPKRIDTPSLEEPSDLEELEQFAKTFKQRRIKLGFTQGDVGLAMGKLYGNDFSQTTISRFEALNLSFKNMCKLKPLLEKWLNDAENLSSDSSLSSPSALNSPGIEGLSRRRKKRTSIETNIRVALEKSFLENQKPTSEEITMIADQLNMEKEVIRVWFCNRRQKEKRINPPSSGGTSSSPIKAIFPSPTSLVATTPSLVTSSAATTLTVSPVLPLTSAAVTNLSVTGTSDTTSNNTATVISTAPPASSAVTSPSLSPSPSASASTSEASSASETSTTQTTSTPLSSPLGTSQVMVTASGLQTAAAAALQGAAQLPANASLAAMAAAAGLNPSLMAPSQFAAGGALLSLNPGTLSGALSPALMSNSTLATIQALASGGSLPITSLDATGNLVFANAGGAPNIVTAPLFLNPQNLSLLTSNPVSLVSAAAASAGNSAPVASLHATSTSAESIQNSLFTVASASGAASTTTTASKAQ
UniProt P42785: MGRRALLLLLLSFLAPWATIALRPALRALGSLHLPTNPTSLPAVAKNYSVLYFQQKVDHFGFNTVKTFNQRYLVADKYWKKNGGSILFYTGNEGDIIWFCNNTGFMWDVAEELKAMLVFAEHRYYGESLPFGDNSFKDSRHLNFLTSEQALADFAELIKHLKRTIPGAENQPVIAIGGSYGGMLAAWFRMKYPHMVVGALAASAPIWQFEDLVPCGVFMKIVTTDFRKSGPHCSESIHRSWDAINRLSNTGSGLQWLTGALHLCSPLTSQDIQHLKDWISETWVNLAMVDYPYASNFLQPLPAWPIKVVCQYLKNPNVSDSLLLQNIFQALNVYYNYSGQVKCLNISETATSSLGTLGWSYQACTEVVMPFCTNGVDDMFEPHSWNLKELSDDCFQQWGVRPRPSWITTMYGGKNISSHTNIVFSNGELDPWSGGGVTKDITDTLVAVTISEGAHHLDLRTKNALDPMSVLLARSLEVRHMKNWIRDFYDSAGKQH
UniProt Q9HB19: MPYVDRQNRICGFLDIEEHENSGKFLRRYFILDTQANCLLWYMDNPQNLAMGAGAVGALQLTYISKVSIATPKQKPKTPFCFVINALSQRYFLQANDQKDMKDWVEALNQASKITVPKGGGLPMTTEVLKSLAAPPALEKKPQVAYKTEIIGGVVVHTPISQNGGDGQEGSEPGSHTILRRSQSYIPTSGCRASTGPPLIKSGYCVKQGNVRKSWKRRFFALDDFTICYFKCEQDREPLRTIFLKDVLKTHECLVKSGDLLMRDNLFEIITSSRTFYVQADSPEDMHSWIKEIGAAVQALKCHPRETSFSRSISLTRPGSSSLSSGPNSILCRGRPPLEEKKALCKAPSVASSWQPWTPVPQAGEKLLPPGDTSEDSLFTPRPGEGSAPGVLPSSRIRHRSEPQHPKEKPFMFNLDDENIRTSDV
UniProt O15318: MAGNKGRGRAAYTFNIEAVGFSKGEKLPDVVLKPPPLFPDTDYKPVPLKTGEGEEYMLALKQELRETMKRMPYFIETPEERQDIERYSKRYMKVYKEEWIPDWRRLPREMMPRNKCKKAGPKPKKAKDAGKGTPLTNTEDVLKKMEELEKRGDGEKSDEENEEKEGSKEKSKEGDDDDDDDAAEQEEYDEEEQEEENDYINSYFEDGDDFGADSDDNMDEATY
UniProt O15173: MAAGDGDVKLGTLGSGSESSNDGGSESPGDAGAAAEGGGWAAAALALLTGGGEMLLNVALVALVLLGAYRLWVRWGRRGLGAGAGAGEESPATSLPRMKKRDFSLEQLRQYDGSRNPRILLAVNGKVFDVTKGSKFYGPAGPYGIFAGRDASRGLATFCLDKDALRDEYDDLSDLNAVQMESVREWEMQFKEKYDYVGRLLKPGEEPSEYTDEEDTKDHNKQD
UniProt P50897: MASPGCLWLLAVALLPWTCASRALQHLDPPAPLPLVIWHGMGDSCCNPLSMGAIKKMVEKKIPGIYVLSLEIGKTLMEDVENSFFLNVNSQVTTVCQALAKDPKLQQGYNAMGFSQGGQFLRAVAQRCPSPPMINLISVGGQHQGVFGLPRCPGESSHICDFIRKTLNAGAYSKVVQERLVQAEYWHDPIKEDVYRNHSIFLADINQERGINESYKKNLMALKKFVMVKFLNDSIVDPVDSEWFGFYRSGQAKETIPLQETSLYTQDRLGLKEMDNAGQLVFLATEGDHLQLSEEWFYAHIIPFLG
UniProt Q96CD2: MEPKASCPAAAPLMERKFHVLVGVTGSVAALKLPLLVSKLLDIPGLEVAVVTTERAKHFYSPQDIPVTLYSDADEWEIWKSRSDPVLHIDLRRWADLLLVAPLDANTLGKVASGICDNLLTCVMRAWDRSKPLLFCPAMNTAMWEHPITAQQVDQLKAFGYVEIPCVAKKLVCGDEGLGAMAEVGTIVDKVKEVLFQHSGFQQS
UniProt Q13356: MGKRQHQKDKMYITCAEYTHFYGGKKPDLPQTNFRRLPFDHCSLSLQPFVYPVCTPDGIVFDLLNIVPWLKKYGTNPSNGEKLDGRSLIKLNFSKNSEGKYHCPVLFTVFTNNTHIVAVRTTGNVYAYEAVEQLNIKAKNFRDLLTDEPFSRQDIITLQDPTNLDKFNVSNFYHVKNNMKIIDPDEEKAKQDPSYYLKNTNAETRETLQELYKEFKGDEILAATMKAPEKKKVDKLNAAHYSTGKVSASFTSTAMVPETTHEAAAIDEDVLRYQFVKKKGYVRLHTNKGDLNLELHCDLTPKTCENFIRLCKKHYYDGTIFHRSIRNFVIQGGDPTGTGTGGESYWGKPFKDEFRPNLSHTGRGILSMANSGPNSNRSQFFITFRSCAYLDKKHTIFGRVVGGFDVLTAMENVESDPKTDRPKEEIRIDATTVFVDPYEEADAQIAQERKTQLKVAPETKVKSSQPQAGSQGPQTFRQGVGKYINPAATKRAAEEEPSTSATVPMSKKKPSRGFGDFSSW
UniProt Q99640: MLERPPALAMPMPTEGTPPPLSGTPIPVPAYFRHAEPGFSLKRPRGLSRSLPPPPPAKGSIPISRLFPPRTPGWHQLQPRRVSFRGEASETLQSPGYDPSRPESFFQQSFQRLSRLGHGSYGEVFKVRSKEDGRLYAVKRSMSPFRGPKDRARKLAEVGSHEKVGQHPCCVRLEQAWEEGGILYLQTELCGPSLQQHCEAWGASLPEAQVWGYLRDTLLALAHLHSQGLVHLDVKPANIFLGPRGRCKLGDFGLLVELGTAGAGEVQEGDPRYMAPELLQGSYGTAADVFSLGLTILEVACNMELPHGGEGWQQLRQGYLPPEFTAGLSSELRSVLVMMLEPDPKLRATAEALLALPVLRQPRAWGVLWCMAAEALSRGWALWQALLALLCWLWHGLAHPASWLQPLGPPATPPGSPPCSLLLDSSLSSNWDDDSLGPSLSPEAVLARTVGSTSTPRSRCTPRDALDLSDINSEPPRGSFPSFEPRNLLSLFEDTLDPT

compound: COc1ccc(Cn2ccc3ccc(C(=O)NO)cc32)cc1; test: dose-dependent thermal stabilisation call (2D-TPP, DLPTP, 10% FDR) (binary (1 = stabilised)); higher = stabilised by the compound; settings: system: HL-60 intact cells; concentration range 0.04-10 µM

Target	dose-dependent thermal stabilisation call
PLRG1 (UniProt O43660)	inactive: 0
PIP5K1A (UniProt Q99755)	inactive: 0
PPA1 (UniProt Q15181)	inactive: 0
PIP4K2C (UniProt Q8TBX8)	inactive: 0
PPP4C (UniProt P60510)	inactive: 0
PPM2C (UniProt Q9P0J1)	inactive: 0
PIK3CG (UniProt P48736)	inactive: 0
PLSCR1 (UniProt O15162)	inactive: 0
POU2F1 (UniProt P14859)	inactive: 0
POLR3C (UniProt Q9BUI4)	inactive: 0
PPM1A (UniProt P35813)	inactive: 0
PRCP (UniProt P42785)	inactive: 0
POLB (UniProt P06746)	inactive: 0
PLEKHA2 (UniProt Q9HB19)	inactive: 0
POLR3G (UniProt O15318)	inactive: 0
PGRMC2 (UniProt O15173)	inactive: 0
POLD1 (UniProt P28340)	inactive: 0
PPT1 (UniProt P50897)	inactive: 0
PPCDC (UniProt Q96CD2)	inactive: 0
PRDX4 (UniProt Q13162)	inactive: 0
PHF14 (UniProt O94880)	inactive: 0
PPIL2 (UniProt Q13356)	inactive: 0
PPOX (UniProt P50336)	inactive: 0
PKMYT1 (UniProt Q99640)	inactive: 0
POLE4 (UniProt Q9NR33)	inactive: 0
PIGG (UniProt Q5H8A4)	inactive: 0
POFUT2 (UniProt Q9Y2G5)	inactive: 0

Exported as labelled records: part of the list above.
PPM1A (UniProt P35813)
  dose-dependent thermal stabilisation call: inactive: 0
PRCP (UniProt P42785)
  dose-dependent thermal stabilisation call: inactive: 0
